Measurements as given in publication PMC12666673.
These are yes or no findings as the source states them, for the method shown. Binding seen in cells or lysates may run through a third protein. Some binding calls cover weakened binding; strength is not graded here.

Protein sequences, listed by entry. Tags and fused reporters are not part of them.
UniProt P07355: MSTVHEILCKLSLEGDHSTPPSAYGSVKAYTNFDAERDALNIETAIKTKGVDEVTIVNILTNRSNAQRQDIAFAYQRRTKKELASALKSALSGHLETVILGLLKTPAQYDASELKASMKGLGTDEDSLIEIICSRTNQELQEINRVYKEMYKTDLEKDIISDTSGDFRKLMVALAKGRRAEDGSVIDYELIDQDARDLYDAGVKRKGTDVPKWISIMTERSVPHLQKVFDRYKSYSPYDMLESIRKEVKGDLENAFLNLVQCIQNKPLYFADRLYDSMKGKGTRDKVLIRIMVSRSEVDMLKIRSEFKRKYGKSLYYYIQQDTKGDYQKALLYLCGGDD

Assays:
[1] = molecular target: T1, V-set and immunoglobulin domain containing 2 (VSIG2) (human (endogenous in AGS)) (UniProt Q96IQ7); experiment: co-IP; AGS cells, endogenous proteins, VSIG2 and ANXA2 antibodies; cells cross-linked with 2 mM DSP, lysed in 0.5% digitonin then 0.3% CHAPS, washes with 500 mM NaCl, western blot
T1 sequence: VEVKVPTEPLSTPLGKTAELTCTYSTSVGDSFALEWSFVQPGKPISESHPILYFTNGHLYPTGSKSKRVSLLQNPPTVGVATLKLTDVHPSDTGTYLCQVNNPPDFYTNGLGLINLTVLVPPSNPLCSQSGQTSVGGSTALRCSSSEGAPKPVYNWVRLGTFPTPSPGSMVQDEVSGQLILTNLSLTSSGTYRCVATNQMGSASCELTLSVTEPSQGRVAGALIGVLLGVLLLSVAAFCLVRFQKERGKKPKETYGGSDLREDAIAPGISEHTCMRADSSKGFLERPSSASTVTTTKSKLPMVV

[2] = molecular target: ANXA2 (human (endogenous in AGS)) (UniProt P07355); experiment: co-IP; FBXW10 with ANXA2 in GC cells with VSIG2 overexpressed or silenced, and in HGC27 cells transfected with increasing doses of VSIG2 plasmid
[3] = molecular target: ANXA2 (human (endogenous in AGS)) (UniProt P07355); experiment: co-IP; gastric cancer cells, FBXW10 with ANXA2; cells cross-linked with 2 mM DSP, anti-ANXA2 magnetic beads, western blot

Molecule | binding [1] | binding [2] | binding [3]
ANXA2 (from UniProt P07355 1-339) | binds |  | 
FBXW10 (protein, UniProt Q5XX13 1-1052) MENLESRLKNAPYFRCEKGTDSIPLCRKCETCVLAWKIFSTKEWFCRINDISQRRFLVGILKQLNSLYLLHYFQNILQTTQGKDFIYNRSRINLSKKEGKVVKSSLNQMLDKTVEQKMKEILYWFANSTQWTKANYTLLLLQMCNPKLLLTAANVIRVLFLREENNISGLNQDITDVCFSPEKDHSSKSATSQVYWTAKTQHTSLPLSKAPENEHLLGAASNPEEPWRNSLRCISEMNRLFSGKGDITKPGYDPCNLLVDLDDIRDLSSGFSKYRDFIRYLPIHLSKYILRMLDRHTLNKCASVSQHWAAMAQQVKMDLSAHGFIQNQITFLQGSYTRGIDPNYANKVSIPVPKMVDDGKSMRVKHPKWKLRTKNEYNLWTAYQNEETQQVLIEERNVFCGTYNVRILSDTWDQNRVIHYSGGDLIAVSSNRKIHLLDIIQVKAIPVEFRGHAGSVRALFLCEEENFLLSGSYDLSIRYWDLKSGVCTRIFGGHQGTITCMDLCKNRLVSGGRDCQVKVWDVDTGKCLKTFRHKDPILATRINDTYIVSSCERGLVKVWHIAMAQLVKTLSGHEGAVKCLFFDQWHLLSGSTDGLVMAWSMVGKYERCLMAFKHPKEVLDVSLLFLRVISACADGKIRIYNFLNGNCMKVLKANGRGDPVLSFFIQGNRMVVNTESNVLMFQFEHIKWQYAVEKTKQKKNKEKEEEKEENSLMEILSKCNIQVHSPRESVSSKQTVIQELLPGKPPKSRVLLKPAKFSSAVLIEELQSQGKSKSPRRDADDVEKAQKQGQLETPGKLPSHPKKKSWKIPMSPDQFLLTVSALQHAHNSGEFAYPCRPQTEITDVWGPSISYPRKVLNFKGKSIQRAVDRLRLSNPPIDVKRTSIPLEIQKLQPNLKISLHSPRVQSTIPQPMIIRSRFSGSLKGGDQVTSSIERAVCSTGPLTSMQVIKPNRMLAPQVGTATLSLKKERPRIYTALDPFRVNTEFVLLTVKEEKEHQEAKMKEYQARESTGVVDPGKVSKAAWIRKIKGLPIDNFTKQGKTAAPELGQNVFI |  | binds | binds
VSIG2, overexpressed from a plasmid (protein, UniProt Q96IQ7 24-327) VEVKVPTEPLSTPLGKTAELTCTYSTSVGDSFALEWSFVQPGKPISESHPILYFTNGHLYPTGSKSKRVSLLQNPPTVGVATLKLTDVHPSDTGTYLCQVNNPPDFYTNGLGLINLTVLVPPSNPLCSQSGQTSVGGSTALRCSSSEGAPKPVYNWVRLGTFPTPSPGSMVQDEVSGQLILTNLSLTSSGTYRCVATNQMGSASCELTLSVTEPSQGRVAGALIGVLLGVLLLSVAAFCLVRFQKERGKKPKETYGGSDLREDAIAPGISEHTCMRADSSKGFLERPSSASTVTTTKSKLPMVV |  | binds | 
